Results reported in PMC3803144.
No constants are given. Whether binding was seen depends on the method and setting. Binding seen in cells or lysates may run through a third protein. Some binding calls cover weakened binding; strength is not graded here. For some of these results: Tags and fused reporters may be left off the sequences shown. Values belong to the substance of their own block, whether it stands above or below them.

Amino acid sequences for entries named in this document (tags omitted).
UniProt Q9JK66: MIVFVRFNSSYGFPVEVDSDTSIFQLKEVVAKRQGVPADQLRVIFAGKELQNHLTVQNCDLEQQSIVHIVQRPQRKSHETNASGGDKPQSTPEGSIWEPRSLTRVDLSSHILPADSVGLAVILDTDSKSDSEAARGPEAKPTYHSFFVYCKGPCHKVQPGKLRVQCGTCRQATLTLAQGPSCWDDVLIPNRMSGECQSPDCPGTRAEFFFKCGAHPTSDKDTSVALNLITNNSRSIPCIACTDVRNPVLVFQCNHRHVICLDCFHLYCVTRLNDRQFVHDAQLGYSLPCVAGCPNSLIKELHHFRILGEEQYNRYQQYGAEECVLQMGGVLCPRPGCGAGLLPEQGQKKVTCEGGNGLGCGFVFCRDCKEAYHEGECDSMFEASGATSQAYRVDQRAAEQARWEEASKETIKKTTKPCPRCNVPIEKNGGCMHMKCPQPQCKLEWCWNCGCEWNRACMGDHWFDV
UniProt O60260: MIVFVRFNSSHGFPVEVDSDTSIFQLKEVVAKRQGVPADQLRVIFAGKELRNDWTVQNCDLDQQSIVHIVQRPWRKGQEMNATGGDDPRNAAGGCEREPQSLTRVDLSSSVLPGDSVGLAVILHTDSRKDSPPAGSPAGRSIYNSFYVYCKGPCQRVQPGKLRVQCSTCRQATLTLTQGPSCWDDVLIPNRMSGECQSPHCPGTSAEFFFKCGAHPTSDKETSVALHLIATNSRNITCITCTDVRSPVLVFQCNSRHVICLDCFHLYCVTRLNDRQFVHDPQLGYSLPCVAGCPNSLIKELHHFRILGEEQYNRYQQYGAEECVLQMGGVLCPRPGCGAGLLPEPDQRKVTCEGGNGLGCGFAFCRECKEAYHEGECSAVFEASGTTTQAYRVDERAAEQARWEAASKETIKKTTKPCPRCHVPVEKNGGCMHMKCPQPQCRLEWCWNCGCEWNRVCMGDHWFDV
UniProt O35889: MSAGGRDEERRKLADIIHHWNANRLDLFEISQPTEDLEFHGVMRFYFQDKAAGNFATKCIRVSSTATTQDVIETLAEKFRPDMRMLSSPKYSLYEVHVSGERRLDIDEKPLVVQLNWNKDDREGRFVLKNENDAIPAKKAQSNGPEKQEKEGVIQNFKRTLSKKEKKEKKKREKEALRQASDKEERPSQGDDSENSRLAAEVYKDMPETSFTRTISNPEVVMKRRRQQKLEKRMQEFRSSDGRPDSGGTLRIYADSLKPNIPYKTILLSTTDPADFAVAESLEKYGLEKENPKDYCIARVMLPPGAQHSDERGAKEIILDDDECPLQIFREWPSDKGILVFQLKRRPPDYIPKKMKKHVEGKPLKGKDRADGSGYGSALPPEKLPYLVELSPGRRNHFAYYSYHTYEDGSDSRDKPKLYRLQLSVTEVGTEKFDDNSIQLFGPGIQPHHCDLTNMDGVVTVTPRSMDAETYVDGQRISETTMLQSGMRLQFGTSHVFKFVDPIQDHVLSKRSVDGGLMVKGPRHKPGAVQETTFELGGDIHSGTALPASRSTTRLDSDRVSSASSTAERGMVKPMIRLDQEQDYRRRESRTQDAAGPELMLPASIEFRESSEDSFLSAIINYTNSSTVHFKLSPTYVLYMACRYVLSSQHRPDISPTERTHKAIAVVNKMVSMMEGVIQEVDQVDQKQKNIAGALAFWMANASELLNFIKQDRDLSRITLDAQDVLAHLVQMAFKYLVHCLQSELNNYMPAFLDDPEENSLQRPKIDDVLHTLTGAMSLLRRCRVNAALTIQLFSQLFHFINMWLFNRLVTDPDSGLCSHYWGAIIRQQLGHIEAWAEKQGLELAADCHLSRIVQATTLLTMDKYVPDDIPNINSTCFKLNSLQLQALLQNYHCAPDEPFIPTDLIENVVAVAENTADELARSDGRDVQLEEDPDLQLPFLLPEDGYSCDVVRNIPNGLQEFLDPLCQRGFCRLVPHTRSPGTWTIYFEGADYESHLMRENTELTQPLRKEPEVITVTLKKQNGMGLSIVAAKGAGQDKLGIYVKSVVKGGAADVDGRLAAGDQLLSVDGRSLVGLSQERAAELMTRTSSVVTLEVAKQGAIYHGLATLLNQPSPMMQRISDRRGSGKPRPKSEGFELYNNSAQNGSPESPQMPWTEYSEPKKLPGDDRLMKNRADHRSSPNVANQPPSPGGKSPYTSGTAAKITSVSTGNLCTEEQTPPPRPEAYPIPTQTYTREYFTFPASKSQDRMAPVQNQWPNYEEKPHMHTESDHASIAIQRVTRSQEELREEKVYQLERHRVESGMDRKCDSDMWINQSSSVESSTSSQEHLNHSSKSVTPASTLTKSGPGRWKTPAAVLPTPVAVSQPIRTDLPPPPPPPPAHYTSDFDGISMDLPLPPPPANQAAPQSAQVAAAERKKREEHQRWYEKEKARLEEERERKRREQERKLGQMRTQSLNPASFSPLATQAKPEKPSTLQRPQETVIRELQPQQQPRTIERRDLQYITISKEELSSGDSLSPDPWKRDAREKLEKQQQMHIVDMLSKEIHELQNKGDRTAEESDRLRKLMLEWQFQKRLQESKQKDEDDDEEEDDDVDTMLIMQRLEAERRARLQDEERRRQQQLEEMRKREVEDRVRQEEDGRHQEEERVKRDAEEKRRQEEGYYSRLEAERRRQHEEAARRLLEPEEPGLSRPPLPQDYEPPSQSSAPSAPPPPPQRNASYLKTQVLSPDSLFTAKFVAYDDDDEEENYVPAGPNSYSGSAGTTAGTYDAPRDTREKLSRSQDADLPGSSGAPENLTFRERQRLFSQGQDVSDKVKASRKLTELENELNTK

How the values were obtained:
[1] = biological target: T1, GST-AF-6 (amino acids 849-1190), encompassing the AF-6 PDZ domain (UniProt P55196); test: pull-down; GST-fusion protein (5 μg/ml) coupled to glutathione-agarose, incubated with clarified lysate of transfected HEK293 cells for 1 h at 4°C; 50 mM Tris pH 7.4, 140 mM NaCl, 0.5% Triton X-100, 1% DOC; washes with 500 mM NaCl; anti-HA blot; only the target purified
T1 sequence: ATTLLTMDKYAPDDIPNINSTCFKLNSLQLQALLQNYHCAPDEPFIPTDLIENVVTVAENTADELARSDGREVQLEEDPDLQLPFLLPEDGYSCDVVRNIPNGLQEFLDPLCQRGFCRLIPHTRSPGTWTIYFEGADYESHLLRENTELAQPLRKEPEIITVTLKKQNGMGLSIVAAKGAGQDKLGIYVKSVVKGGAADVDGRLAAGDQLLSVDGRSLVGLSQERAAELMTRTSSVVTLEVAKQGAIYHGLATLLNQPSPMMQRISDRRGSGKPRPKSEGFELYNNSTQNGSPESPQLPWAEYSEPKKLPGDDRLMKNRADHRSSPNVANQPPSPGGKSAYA

GST-FKBP12 = GST-FKBP12 (UniProt P62942); test: as above
[2] = biological target: endogenous parkin (rat brain) (rat (endogenous in rat brain)) (UniProt Q9JK66); test: co-IP; rat brain homogenate (2 mg/ml), anti-parkin antibody on protein G beads, 7 h; 50 mM Tris pH 7.4, 140 mM NaCl, 1% DOC, 1% NP-40, 0.1% SDS; washes with 500 mM NaCl; anti-AF-6 blot; control IgG
HA-parkin (wild-type) = HA-parkin (wild-type) (UniProt O60260); test: co-IP; HEK293 cells co-transfected; anti-HA coupled to protein G beads, 4 h; 50 mM Tris pH 7.4, 140 mM NaCl, 1% Triton X-100, 1% DOC, 0.1% SDS; washes with 500 mM NaCl; anti-myc blot

binding [1]: binds
Substance: HA-parkin (wild-type) (from UniProt O60260 1-465) (enzyme)
binding (GST-FKBP12): no binding (tested: 5 μg/ml GST-fusion protein)

binding [2]: binds
Substance: endogenous AF-6 (rat brain) (from UniProt O35889 1-1829)

binding (HA-parkin (wild-type)): no binding
Substance: myc-FKBP12 (from UniProt P62942 1-108)
